Chains of the proteins cited; added tags and fusions are not shown. Lines headed by an entry give the natural chain unless they say otherwise; changes in a name come on top.
UniProt P51450: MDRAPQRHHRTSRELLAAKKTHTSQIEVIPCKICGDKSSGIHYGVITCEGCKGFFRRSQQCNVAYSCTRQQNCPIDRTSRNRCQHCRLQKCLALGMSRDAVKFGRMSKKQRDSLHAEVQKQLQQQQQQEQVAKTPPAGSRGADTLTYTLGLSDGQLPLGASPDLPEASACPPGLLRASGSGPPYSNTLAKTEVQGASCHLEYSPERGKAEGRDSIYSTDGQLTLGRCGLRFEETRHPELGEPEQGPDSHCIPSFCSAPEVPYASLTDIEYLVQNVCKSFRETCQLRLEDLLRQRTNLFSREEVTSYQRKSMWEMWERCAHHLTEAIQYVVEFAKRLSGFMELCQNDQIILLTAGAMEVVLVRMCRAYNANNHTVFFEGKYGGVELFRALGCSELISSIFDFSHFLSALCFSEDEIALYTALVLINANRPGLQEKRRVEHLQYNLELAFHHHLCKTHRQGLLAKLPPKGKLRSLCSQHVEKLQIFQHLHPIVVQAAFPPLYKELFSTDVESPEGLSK

Several values for one entry are separate records, joined by “and”; a condition that tells them apart may be missing. Equal values may be shown once. The campaign covered roughly 310,000 compounds. About 17,000 (5.5%) were called active. This list was built around the results that the source calls inconclusive (neither active nor inactive); the mix of calls is not that of the screen. Calls come from the whole dose curve; as a rule, active = well fitted inhibition curve with a large enough effect; inconclusive = small, poorly fitted or top-dose-only effect, or effect the other way; inactive = no such curve, though single readings can be large or run the other way. Potencies beside an inconclusive call are fits to weak or partial responses and may not hold up.
The molecules below were run against Nuclear receptor ROR-gamma (Mus musculus) (UniProt P51450) (assay: qHTS for inhibitors of ROR gamma transcriptional activity). Conditions: Drosophila S2 Gal4-RORgamma UAS-luciferase reporter, 20 h; activity change, negative = inhibition: at 53.6 µM (top of the series).
How it was run: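 Luminescence from a UAS-regulated Photinus luciferase reporter in stably transfected Drosophila Schneider cells is measured; decreased signal marks ROR gamma inhibition. Fusion expression is induced by 700 uM copper sulfate for 20 hr.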
In the case of `CC(C)(C)c1cc(C(=O)NNc2cccc(Cl)c2)n(Cc2ccccc2)n1`, the Potency is reported as inconclusive: 28.2 µM [inhibitor, single point].
In the case of `O=C1Nc2ccccc2C(=O)N2CCC[C@@H]12`, the “activity change, negative = inhibition” value is reported as inactive: 14.9%.
`CC1(C)Cc2c(c(N3CCOCC3)nc3sc4c(NCc5ccco5)nnnc4c23)CS1` was tested, and the “activity change, negative = inhibition” value was inactive: -1.52%.
In the case of `O=C(Nc1ccc(S(=O)(=O)N2CCOCC2)cc1)c1cccc([N+](=O)[O-])c1`, the Potency is reported as inconclusive: 35.5 µM [activator, single point].
For `O=S(=O)(c1cccs1)N1CCN(Cc2nc3ccccc3s2)CC1`, the Potency was inconclusive: 12.6 µM [activator, single point].
With `O=C(/C=C/c1cccc(Cl)c1)NCCc1ccccc1` the Potency was inconclusive: 10 µM [activator, partial curve].
With `O=C(Nc1ccc(N=Nc2ccccc2)cc1)c1ccc(Cl)cc1Cl` the Potency was inconclusive: 35.5 µM [inhibitor, single point].
With `CC(=O)c1ccc(N2C(=O)C3C(C2=O)C(C(=O)c2ccc(Cl)cc2)N2CCCC32)cc1` (stereo not given) the Potency was inconclusive: 17.8 µM [inhibitor, single point].
For `CCOC(=O)c1cnc(-n2nc(C)cc2C)nc1NC1CCCCC1`, the Potency was active: 0.355 µM.
For `COC(=O)CSCc1nc2ccccc2[nH]c1=O`, the “activity change, negative = inhibition” value was inactive: -23.6%.
In the case of `C/C(CC(=O)N1CCN(C=O)CC1)=N\NC(=O)c1cc2ccccc2cc1O`, the “activity change, negative = inhibition” value is reported as inactive: -27.5%.
In the case of `CCCCCCCc1ccc(C2NC(=S)NC3=C2C(=O)c2ccccc23)cc1` (stereo not given), the Potency is reported as active: 5.62 µM.
`COc1ccccc1NC(=O)NNC(=O)CCN1CCOCC1` was tested, and the “activity change, negative = inhibition” value was inactive: 3.89%.
`CN(CC(=O)N1CCN(Cc2ccccc2)CC1)S(=O)(=O)c1ccc(Br)cc1` was tested, and the Potency was inconclusive: 2 µM [activator, partial curve].
For `c1ccc(C(NCCNC(c2ccccc2)c2ccccc2)c2ccccc2)cc1`, the Potency was active: 14.1 µM and active: 12.6 µM.
For `Nc1nc(-c2ccco2)nn1S(=O)(=O)c1ccccc1`, the “activity change, negative = inhibition” value was inactive: 13%.
In the case of `COc1ccc(CCNS(=O)(=O)c2ccc3c(c2)CC(C)N3C(C)=O)cc1OC` (stereo not given), the Potency is reported as inconclusive: 11.2 µM [activator, partial curve].
For `CC(=O)Nc1ccc(C(=O)Nc2ccc(S(=O)(=O)N3CCCCC3)cc2)cc1`, the “activity change, negative = inhibition” value was inactive: 9.33%.
`NS(=O)(=O)c1ccc(CCNS(=O)(=O)c2ccccc2)cc1` was tested, and the “activity change, negative = inhibition” value was inactive: 6.56%.
For `COCCCN(C(=S)Nc1cc(Cl)cc(Cl)c1)C(C)c1ccncc1` (stereo not given), the Potency was inconclusive: 28.2 µM [inhibitor, single point].
With `Cc1nc(N2CCC(C)CC2)c2oc3ccccc3c2n1` the Potency was active: 12.6 µM.
In the case of `CC(=O)c1cccc(NC(=O)Nc2csc3c2CCCC3)c1`, the Potency is reported as inconclusive: 10 µM [inhibitor, partial curve].
In the case of `CC1=C(C(=O)N2CCCCC2)C(c2cccs2)NC(=O)N1` (stereo not given), the Potency is reported as inconclusive: 3.16 µM [inhibitor, single point].
With `COc1cc(/C=C2\SC(=O)NC2=O)ccc1Oc1ccc([N+](=O)[O-])cc1[N+](=O)[O-]` the Potency was inconclusive: 12.6 µM [inhibitor, single point].
`CCSc1cnc(-c2ccccc2)n1CC` was tested, and the Potency was active: 12.6 µM.
`CN(Cc1ccccc1)C(=O)c1ccc(Cl)c([N+](=O)[O-])c1` was tested, and the Potency was inconclusive: 31.6 µM [activator, single point].
In the case of `COc1ccc(-c2cc(=O)c3c(O)cc(O)cc3o2)cc1`, the Potency is reported as inconclusive: 28.2 µM [inhibitor, single point].
For `COc1ccc(NC(=O)CCNC(=O)c2ccco2)cc1S(=O)(=O)N(C)C`, the “activity change, negative = inhibition” value was inactive: 30.6%.
For `N=C1C(c2nc3ccccc3s2)=C(O)CN1NC(=O)c1ccc([N+](=O)[O-])cc1`, the Potency was active: 2.82 µM.
`CCOC(=O)c1ccc(-n2ccnc2)c(NC(=O)c2cccc(Br)c2)c1` was tested, and the Potency was inconclusive: 11.2 µM [activator, partial curve].
For `Cc1ccn2c(=O)cc(C)nc2c1`, the “activity change, negative = inhibition” value was inactive: 0.192%.
With `Cc1cc(C)nc(N/N=C/c2ccc3c(c2)OCCO3)n1` the Potency was inconclusive: 35.5 µM [inhibitor, single point].
`COC(=O)c1ccccc1NC(=S)NC(=O)CC(C)C` was tested, and the Potency was active: 12.6 µM.
In the case of `O=c1c2ccccc2nc(/C=C/c2cccnc2)n1CCc1ccccc1`, the “activity change, negative = inhibition” value is reported as inactive: 28.7%.
In the case of `CNC(=S)N/N=C/c1ccccc1OCC(=O)O`, the “activity change, negative = inhibition” value is reported as inactive: -31.3%.
For `COc1ccc(C(=O)CSc2n[nH]c(-c3ccncc3)n2)cc1[N+](=O)[O-]`, the Potency was inconclusive: 6.31 µM [activator, partial curve, poor fit].
`Cc1ccc(SCCNC(=S)Nc2ccc(C)cc2C)cc1` was tested, and the Potency was active: 3.55 µM.
`CCOCCCNC(=S)Nc1cc(C)cc(C)c1` was tested, and the Potency was active: 6.31 µM.
`COc1cc2c(cc1OC)C(c1cc3ccc(C)cc3[nH]c1=O)N(C(=O)c1ccco1)CC2` (stereo not given) was tested, and the Potency was inconclusive: 15.8 µM [activator, single point].
With `COc1ccc(OCc2cc(C(=O)NC(C)Cn3cncn3)no2)c(Cl)c1` (stereo not given) the “activity change, negative = inhibition” value was inactive: 37.1%.
With `CC1(C)CC2(CC(c3cccs3)c3cc(Cl)c(O)cc3O2)NC(=S)N1` (stereo not given) the Potency was inconclusive: 28.2 µM [inhibitor, single point].
`C[C@@H]1NC(=O)C/C=C\[C@@H](C)[C@@H]2C=C[C@H](O)[C@@H](COC(=O)[C@H](C)NC(=O)C/C=C\[C@@H](C)[C@@H]3C=C[C@H](O)[C@@H](COC1=O)O3)O2` was tested, and the activity change, negative = inhibition was inactive: 1.8% [at 10 µM].
With `C/C(=N\NC(=S)NCc1ccccc1)c1ccc(Cl)cc1` the Potency was active: 3.55 µM.
For `COc1ccccc1OCCC(=O)OCC(=O)Nc1ccc(Br)cc1`, the Potency was inconclusive: 15.8 µM [activator, partial curve].
In the case of `O=c1c(O)c(-c2cc(O)c(O)c(O)c2)oc2cc(O)cc(O)c12`, the Potency is reported as “inactive”.
`Cn1ccs/c1=N\C(=O)Nc1cccc(Cl)c1` was tested, and the “activity change, negative = inhibition” value was inactive: -0.195%.
With `COCCCn1c(-c2ccc(Cl)cc2)n[nH]c1=S` the Potency was active: 17.8 µM.
For `COc1ccccc1NC(=S)NC(=O)c1ccc(Cn2cc(Br)cn2)cc1`, the Potency was active: 7.94 µM.
`Cc1ccc(-c2nc(NCc3ccco3)n(S(C)(=O)=O)n2)cc1` was tested, and the Potency was inconclusive: 6.31 µM [activator, partial curve].
With `Cc1cc(C(=O)NCc2ccccc2Cl)n(-c2ccccc2)n1` the “activity change, negative = inhibition” value was inactive: 18.2%.

— PubChem BioAssay AID2551 (National Center for Advancing Translational Sciences (NCATS), 2010)
% is set by controls: 0 for no effect and ±100 for the full control effect; potency is the fitted concentration of half-maximal effect.
Note: nearly all actives have a fitted effect of over 60% in size.
